Two molecules from publication doi:10.1101/2025.08.22.671721 can be followed below.

No constants are given. Whether binding was seen depends on the method and setting. In cells and extracts the contact can be indirect. Here binding means that the protein was enriched with, or labelled near, the bait; the list need not be complete. No binding means not detected with the bait.

In assay [1] the target is CDJ5-WTTID (Chlamydomonas reinhardtii). Kind of assay: proximity labelling.
The target in assay [2] is LCP1TID (Chlamydomonas reinhardtii). Nature of the assay: proximity labelling.

B1: ycf3/pafI (protein, UniProt O20031 1-172)
chain: MPRTQRNDNFIDKTFTVVADILLKVLPTSQREKQAFSYYRNGMSAQAEGEYAEALQNYYEAMRLEVDAYDRSYILYNIGLIHTSNGEHGRALEYYYQALERNPSLSSALNNIAVIYHYRGEQAIENGQSEISQILFEKAADYWKEAIRLAPTNYIEALNWLKMTGRLTGLAT
Consider B1, for which, in assay [1], the binding entry is on record as “no binding”.

B2: PSAH1 (protein, UniProt P13352 31-130)
chain: KYGENSRYFDLQDMENTTGSWDMYGVDEKKRYPDNQAKFFTQATDIISRRESLRALVALSGIAAIVTYGLKGAKDADLPITKGPQTTGENGKGGSVRSRL
For B2, the binding result in assay [2] is “no binding”.
